Measurements from publication PMC4865133.
Results are given in words; binding and its absence hold for the method and conditions named. Binding seen in cells or lysates may run through a third protein. Some entries that bind do so weakly or less than the wild type. Tags and fused reporters may be left off the sequences shown.

Columns and labels:
[1] = biological target: T1, SWI3D-Flag (Arabidopsis) (UniProt Q8VY05); assay: co-IP; lysate of 2-week-old seedlings of F1 hybrids of transgenic Arabidopsis; Anti-Flag M2 Affinity Gel, 4°C, 2.5 h; eluted with 3xFlag peptide; western blot
T1 sequence: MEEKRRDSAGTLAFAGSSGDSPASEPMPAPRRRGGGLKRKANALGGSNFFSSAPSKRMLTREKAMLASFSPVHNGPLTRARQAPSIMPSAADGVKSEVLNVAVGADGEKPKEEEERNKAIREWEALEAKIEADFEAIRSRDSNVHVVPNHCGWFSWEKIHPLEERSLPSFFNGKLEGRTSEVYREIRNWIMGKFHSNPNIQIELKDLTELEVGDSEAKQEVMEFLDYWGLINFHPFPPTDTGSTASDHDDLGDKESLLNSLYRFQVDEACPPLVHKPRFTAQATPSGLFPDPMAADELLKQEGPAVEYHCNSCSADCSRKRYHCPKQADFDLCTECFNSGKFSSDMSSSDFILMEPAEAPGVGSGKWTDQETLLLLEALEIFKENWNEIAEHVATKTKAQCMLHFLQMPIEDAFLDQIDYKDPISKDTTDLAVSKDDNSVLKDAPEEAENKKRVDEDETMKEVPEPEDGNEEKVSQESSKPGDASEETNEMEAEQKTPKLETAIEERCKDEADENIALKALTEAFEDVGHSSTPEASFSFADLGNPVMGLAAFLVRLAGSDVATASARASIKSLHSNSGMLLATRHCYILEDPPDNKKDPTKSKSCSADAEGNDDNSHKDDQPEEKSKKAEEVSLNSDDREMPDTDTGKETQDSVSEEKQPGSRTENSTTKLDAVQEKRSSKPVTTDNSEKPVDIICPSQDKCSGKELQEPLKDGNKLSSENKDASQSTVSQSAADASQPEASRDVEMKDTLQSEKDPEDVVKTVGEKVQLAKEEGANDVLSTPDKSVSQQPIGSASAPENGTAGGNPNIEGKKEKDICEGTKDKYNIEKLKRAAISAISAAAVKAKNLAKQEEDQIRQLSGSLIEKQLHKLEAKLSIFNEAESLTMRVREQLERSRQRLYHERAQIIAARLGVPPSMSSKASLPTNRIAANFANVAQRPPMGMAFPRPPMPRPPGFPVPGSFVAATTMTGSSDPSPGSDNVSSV

[2] = biological target: T2, MORC6-Flag (Arabidopsis) (UniProt Q56Y74); assay: as above
T2 sequence: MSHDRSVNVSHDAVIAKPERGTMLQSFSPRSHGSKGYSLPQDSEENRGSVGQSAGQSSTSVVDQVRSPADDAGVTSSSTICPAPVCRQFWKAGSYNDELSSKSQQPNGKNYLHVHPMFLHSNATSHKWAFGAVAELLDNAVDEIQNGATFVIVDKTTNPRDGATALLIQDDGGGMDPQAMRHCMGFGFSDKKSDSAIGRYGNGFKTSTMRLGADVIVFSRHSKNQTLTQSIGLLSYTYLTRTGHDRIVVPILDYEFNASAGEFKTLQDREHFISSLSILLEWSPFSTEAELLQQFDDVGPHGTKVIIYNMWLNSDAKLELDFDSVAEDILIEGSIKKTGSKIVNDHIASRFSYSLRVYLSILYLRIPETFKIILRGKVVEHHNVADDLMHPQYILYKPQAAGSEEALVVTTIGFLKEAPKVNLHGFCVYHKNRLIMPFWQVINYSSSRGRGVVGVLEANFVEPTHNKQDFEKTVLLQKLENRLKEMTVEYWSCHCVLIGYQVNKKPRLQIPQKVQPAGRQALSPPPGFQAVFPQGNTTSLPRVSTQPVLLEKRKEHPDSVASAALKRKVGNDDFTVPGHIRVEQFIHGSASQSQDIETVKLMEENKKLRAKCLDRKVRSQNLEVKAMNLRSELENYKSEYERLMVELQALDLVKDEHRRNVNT

B1: MORC6-Myc (protein, UniProt Q56Y74 1-663)
chain: MSHDRSVNVSHDAVIAKPERGTMLQSFSPRSHGSKGYSLPQDSEENRGSVGQSAGQSSTSVVDQVRSPADDAGVTSSSTICPAPVCRQFWKAGSYNDELSSKSQQPNGKNYLHVHPMFLHSNATSHKWAFGAVAELLDNAVDEIQNGATFVIVDKTTNPRDGATALLIQDDGGGMDPQAMRHCMGFGFSDKKSDSAIGRYGNGFKTSTMRLGADVIVFSRHSKNQTLTQSIGLLSYTYLTRTGHDRIVVPILDYEFNASAGEFKTLQDREHFISSLSILLEWSPFSTEAELLQQFDDVGPHGTKVIIYNMWLNSDAKLELDFDSVAEDILIEGSIKKTGSKIVNDHIASRFSYSLRVYLSILYLRIPETFKIILRGKVVEHHNVADDLMHPQYILYKPQAAGSEEALVVTTIGFLKEAPKVNLHGFCVYHKNRLIMPFWQVINYSSSRGRGVVGVLEANFVEPTHNKQDFEKTVLLQKLENRLKEMTVEYWSCHCVLIGYQVNKKPRLQIPQKVQPAGRQALSPPPGFQAVFPQGNTTSLPRVSTQPVLLEKRKEHPDSVASAALKRKVGNDDFTVPGHIRVEQFIHGSASQSQDIETVKLMEENKKLRAKCLDRKVRSQNLEVKAMNLRSELENYKSEYERLMVELQALDLVKDEHRRNVNT
[1]
  binding: binds

B2: IDN2-Myc (protein, UniProt Q8VZ79 1-647)
chain: MGSTVILSSDDEDSDISESEMDEYGDKMYLNLKGGKLKVRLSPQAFICPYCPNKKKTSFQYKDLLQHASGVGNSNSDKRSAKEKASHLALVKYLQQDLADSASEAEPSSKRQKNGNPIQDCDHDEKLVYPWKGIVVNIPTTKAQDGRSAGESGSKLRDEYILRGFNPTRVRPLWNYLGHSGTAIVEFNKDWNGLHNGLLFDKAYTVDGHGKKDWLKKDGPKLGLYGWIARADDYNGNNIIGENLRKTGDLKTIAELTEEEARKQELLVQNLRQLVEEKKKDMKEIEELCSVKSEELNQLMEEKEKNQQKHYRELNAIQERTMSHIQKIVDDHEKLKRLLESERKKLEIKCNELAKREVHNGTERMKLSEDLEQNASKNSSLELAAMEQQKADEEVKKLAEDQRRQKEELHEKIIRLERQRDQKQAIELEVEQLKGQLNVMKHMASDGDAEVVKEVDIIFKDLGEKEAQLADLDKFNQTLILRERRTNDELQEAHKELVNIMKEWNTNIGVKRMGELVTKPFVDAMQQKYCQQDVEDRAVEVLQLWEHYLKDSDWHPFKRVKLENEDREVEVIDDRDEKLRELKADLGDGPYNAVTKALLEINEYNPSGRYITTELWNFKADKKATLEEGVTCLLDQWEKAKRKRGMA
[2]
  binding: binds
